# Data taken from publication PMC6925144, “A prospective compound screening contest identified broader inhibitors for Sirtuin 1” (Scientific Reports, 2019).
# Amino acid sequences for entries named in this document (tags omitted). Residues count along the entry.
# UniProt Q96EB6, 2-747 limits assumed: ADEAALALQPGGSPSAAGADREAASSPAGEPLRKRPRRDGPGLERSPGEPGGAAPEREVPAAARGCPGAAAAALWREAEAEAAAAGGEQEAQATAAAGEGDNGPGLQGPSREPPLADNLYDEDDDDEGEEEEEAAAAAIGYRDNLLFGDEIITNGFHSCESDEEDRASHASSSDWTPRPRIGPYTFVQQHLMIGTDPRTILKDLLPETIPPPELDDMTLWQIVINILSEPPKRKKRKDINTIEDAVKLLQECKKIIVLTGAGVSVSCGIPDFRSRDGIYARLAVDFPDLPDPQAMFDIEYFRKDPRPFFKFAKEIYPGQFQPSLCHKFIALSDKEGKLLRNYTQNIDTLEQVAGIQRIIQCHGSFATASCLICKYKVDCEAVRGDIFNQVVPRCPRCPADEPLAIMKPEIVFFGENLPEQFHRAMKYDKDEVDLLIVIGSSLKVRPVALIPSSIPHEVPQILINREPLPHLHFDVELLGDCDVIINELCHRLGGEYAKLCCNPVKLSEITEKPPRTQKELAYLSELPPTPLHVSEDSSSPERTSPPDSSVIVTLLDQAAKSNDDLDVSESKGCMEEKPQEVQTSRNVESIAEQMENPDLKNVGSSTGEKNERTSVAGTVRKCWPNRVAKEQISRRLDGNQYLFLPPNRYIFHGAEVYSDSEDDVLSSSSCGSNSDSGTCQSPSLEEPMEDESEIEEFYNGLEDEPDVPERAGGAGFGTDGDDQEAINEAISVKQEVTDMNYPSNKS
# The full ranking holds about 3,200 compounds; the median of “TSA(with NAD+) / Primary screening (TSA) / delta Tm (K)” is about -0.04, and the highest 2% start at about 0.37. The list shows a part of the results.
# Molecular target: NAD-dependent deacetylase Sirtuin 1 (human, UniProt Q96EB6)
# Test: primary screen, delta tm
# Parameters: single well (n = 1, as 'the same TSA')
# Conditions: 10 µM
row,Structure (SMILES),TSA(with NAD+) / Primary screening (TSA) / delta Tm (K)
1,COc1ccc(C23CC4CC(CC(C(=O)NCc5ccc6c(c5)OCO6)(C4)C2)C3)cc1,-0.04
2,CCC(N)C(=O)NC (centres unmarked),-0.18
3,Cc1nc(-c2cccnc2)nc(NCC(O)c2ccsc2)c1C (centres unmarked),0.02
4,CC1CCN(CCCNC(=O)C2=NN(c3ccc(F)cc3)C(C(N)=O)C2)CC1 (centres unmarked),-0.12
5,O=C(CCSc1ncccn1)Nc1c(Cl)cccc1Cl,-0.03
6,COc1ccc(N(C)S(=O)(=O)c2cccc(C(=O)Nc3ccc4ccccc4c3)c2)cc1,0.65
7,NC(=O)c1cc(NC(=O)CN2CC=C(c3ccc(O)cc3)CC2)cc(C(N)=O)c1,-0.01
8,CC1OC1P(=O)([O-])[O-] (centres unmarked),-0.01
9,COc1ccc(C(=O)C2=C(O)C(=O)N(CCCN3CCOCC3)C2c2ccc(C)cc2)cc1 (centres unmarked),-0.04
10,COc1ccccc1C(C)Nc1cc(=O)n2ccccc2n1 (centres unmarked),-0.13
11,Cc1ccc(-c2nc(C(=O)NCCc3nnc4ccccn34)cs2)o1,0.01
12,O=C(Nc1cc(S(=O)(=O)N2CCOCC2)ccc1Oc1ccc(F)cc1)C1=COCCO1,-0.16
13,O=c1[nH]cnc2c1ncn2[C@H]1CC[C@@H](CO)O1,-0.06
14,CC(C)C(O)CCN (centres unmarked),-0.06
15,CN(Cc1nc2ccccc2s1)C(=O)CSc1nnc(CC2CCS(=O)(=O)C2)o1 (centres unmarked),-0.09
16,CC1CCN(c2ccc(NC(=O)N(C)Cc3cnccn3)cc2)C1 (centres unmarked),-0.02
17,O=C(CN1CCN(C(=O)c2ccccc2COc2ccccc2)CC1)Nc1ccccc1Cl,-0.03
18,NC(=O)C1CCN(C(=O)c2cc3ccc(Br)cc3[nH]2)C1 (centres unmarked),-0.03
19,COc1cccc(/C=N/c2cccc(C(N)=O)c2)c1O,-0.13
20,Cc1ccc(C2C(C(=O)c3cc4ccccc4o3)=C(O)C(=O)N2CCCN2CCOCC2)o1 (centres unmarked),0.05
21,COc1ccc(/C=C2/COc3ccc(Br)cc3C2=O)cc1OC(F)F,0.02
22,O=C1/C(=C/c2ccccc2[N+](=O)[O-])Oc2cc(O)ccc21,-0.06
23,CCN(CC)C(=O)CN1CCCN(CC(=O)Nc2sccc2C(N)=O)CC1,0.01

row,Structure (SMILES),TSA(with NAD+) / Primary screening (TSA) / delta Tm (K)
1,Cc1sc(NC(=O)C2CCN(c3ncc(C(F)(F)F)cc3Cl)CC2)c(C(N)=O)c1C,0.22
2,Cc1cc2cc(NC(=O)Cc3c(C)nc(-c4ccccn4)[nH]c3=O)ccc2[nH]1,0.03
3,C=CCNc1nnc(SCC(O)COC(c2ccccc2)c2ccccc2C)s1 (centres unmarked),-0.01
4,Cc1nn(-c2ccc(F)cc2)c(C)c1CNCc1ccccc1,-0.23
5,NC1CCCCC1N (centres unmarked),-0.18
6,COC(=O)c1ccc(C2C(C(=O)c3sc(C)nc3C)=C(O)C(=O)N2CCN2CCOCC2)cc1 (centres unmarked),-0.09
7,COc1ccc(N(Cc2ccc(C(N)=O)cc2)Cc2ccc(C(N)=O)cc2)cc1,-0.11
8,CS(=O)(=O)NN,-0.16
9,O=C(CSc1nnc(NCc2ccco2)s1)Nc1nc(-c2ccc(F)cc2)cs1,-0.09
10,CC(CN)C1CC1 (centres unmarked),-0.21
11,Cc1cccc2nc(C(=O)Nc3nc(SCc4ccc(Cl)cc4)n[nH]3)cn12,0.11
12,Cc1ccc(Cn2c(=O)c3ccccc3n3c(SCC4CCCCO4)nnc23)cc1 (centres unmarked),-0.28
13,CCS(=O)(=O)CCNC(=O)/C=C/c1cccc2ccccc12,-0.13
14,O=C(Nc1cccc(S(=O)(=O)N2CCOCC2)c1)c1ccccc1COc1ccccc1,-0.09
15,CC(C(=O)c1c[nH]c2ccccc12)N(C)CCOc1ccccc1F (centres unmarked),-0.01
16,Cc1cccc(Cc2cnc(NC(=O)c3ccc(COc4ccc5c(C)cc(=O)oc5c4)cc3)s2)c1,-0.03
17,N=c1nc[nH]c2c1ncn2CCC(N)=O,0.08
18,O=C(CCC(=O)c1ccccc1)Nc1ccccc1Cc1ccccc1,-0.11
19,C=CCOc1ccc(C2C(C(=O)c3ccc(C)o3)=C(O)C(=O)N2CCCN2CCOCC2)cc1 (centres unmarked),-0.04
20,O=C(NCc1nnc2ccccn12)c1cn(Cc2ccccc2)nc1-c1ccc(Cl)cc1,-0.03
21,CCC(=O)N1N=C(c2ccco2)CC1c1ccc(N(C)C)cc1 (centres unmarked),-0.16
22,CN(C)c1ccc([N+](=O)[O-])cn1,0.18
23,N#Cc1ccccc1Sc1ccccc1C(=O)Nc1ccc(-c2cn3cccnc3n2)cc1,-0.03

# Of the compounds above, these contain fluorine:
row,Structure (SMILES),TSA(with NAD+) / Primary screening (TSA) / delta Tm (K)
4,CC1CCN(CCCNC(=O)C2=NN(c3ccc(F)cc3)C(C(N)=O)C2)CC1 (centres unmarked),-0.12
12,O=C(Nc1cc(S(=O)(=O)N2CCOCC2)ccc1Oc1ccc(F)cc1)C1=COCCO1,-0.16
21,COc1ccc(/C=C2/COc3ccc(Br)cc3C2=O)cc1OC(F)F,0.02
1,Cc1sc(NC(=O)C2CCN(c3ncc(C(F)(F)F)cc3Cl)CC2)c(C(N)=O)c1C,0.22
4,Cc1nn(-c2ccc(F)cc2)c(C)c1CNCc1ccccc1,-0.23
9,O=C(CSc1nnc(NCc2ccco2)s1)Nc1nc(-c2ccc(F)cc2)cs1,-0.09
15,CC(C(=O)c1c[nH]c2ccccc12)N(C)CCOc1ccccc1F (centres unmarked),-0.01

# Later entries:

row,Structure (SMILES),TSA(with NAD+) / Primary screening (TSA) / delta Tm (K)
1,O=C(O)CCn1cc(C=C2C(=O)NC(=S)NC2=O)c(-c2cccc(Br)c2)n1,0.06
2,CC(OC(=O)c1cccc(S(=O)(=O)NCc2ccccc2)c1)C(=O)NC12CC3CC(CC(C3)C1)C2 (centres unmarked),0.16
3,O=C(c1cnc2ccccc2n1)N1CCCC1c1nc2ccccc2s1 (centres unmarked),-0.03
4,O=C(O)C1CC(=O)N(c2ccc(S(=O)(=O)N3CCCc4cccc(F)c43)cc2)C1 (centres unmarked),-0.03
5,CC1CCN(C)c2ccccc2N1CCOc1ccc(S(N)(=O)=O)cc1 (centres unmarked),-0.06
6,CC(=O)N(C)CC(=O)NCC1CC2c3ccccc3C1c1ccccc12 (centres unmarked),-0.11
7,N#C/C(=C/c1ccc(-c2cc(Cl)ccc2Cl)o1)C(=O)Nc1cccc2ncccc12,-0.18
8,OC(CNCCc1c[nH]c2ccccc12)c1ccccc1 (centres unmarked),-0.03
9,CC(C)c1ccc(OCc2nnc(SCC(=O)Nc3ccccc3-c3ccccc3)n2N)cc1,-0.11
10,Cc1sc2ncnc(N3CCC(C(=O)N4CCC(C(N)=O)CC4)CC3)c2c1C,-0.03
11,CCn1nc(C(=O)NC2CCCc3ccccc32)c2ccccc2c1=O (centres unmarked),-0.23
12,COc1ccccc1C(=O)NCC(=O)OCC(=O)Nc1ccc(C(N)=O)cc1,0.06
13,Sc1ncnc2c1oc1ccccc12,0.06
14,NC(=O)COC(=O)CC1Sc2ccc(C(F)(F)F)cc2NC1=O (centres unmarked),-0.01
15,CC1Oc2ccc(NC(=O)c3cccc(S(=O)(=O)N(C)c4ccccc4)c3)cc2NC1=O (centres unmarked),0.02
16,CCc1cc2c(N3CCCC(c4cc(C(N)=O)[nH]n4)C3)ncnc2s1 (centres unmarked),0.06
17,CC(C)CCCC(C)NC(=O)c1cc(-c2ccccc2)nc2c(C(N)=O)ncn12 (centres unmarked),-0.01
18,O=C(O)C1CC(=O)N(c2ccc(S(=O)(=O)Nc3ccc(F)c(F)c3)cc2)C1 (centres unmarked),-0.18
19,Cc1c(CCO)c(=O)n2c([nH]c3ccccc32)c1C#N,-0.03
20,COc1ccc(/C=C2/COc3ccc(Br)cc3C2=O)c(OC)c1OC,-0.01
21,Cc1cccc(C2NC(=O)c3ccccc3N2C)c1 (centres unmarked),0.18
22,CC1CCc2c(sc3ncnc(N4CCCN(CC(N)=O)CC4)c23)C1 (centres unmarked),-0.05
23,CCOc1cc(/C=N/NC(=O)c2cc3c(s2)CCCC3)ccc1OCC(=O)Nc1cccc(C(F)(F)F)c1,1.05

row,Structure (SMILES),TSA(with NAD+) / Primary screening (TSA) / delta Tm (K)
1,CC(C)(C)C(N)CN (centres unmarked),-0.11
2,CCCNCC,-0.11
3,Cc1ccc2[nH]c3c(c2c1)CC(N1CC(CN)CC1C)CC3 (centres unmarked),-0.16
4,Cn1c(-c2ccccc2)c(C(=O)CC#N)c2ccccc21,-0.05
5,CN(c1ccc(CNC(=O)c2cc[n+]([O-])cc2)cc1)C1CCCCC1,-0.22
6,NC(=O)c1cc(NC(=O)CN2CCCC2c2cccs2)cc(C(N)=O)c1 (centres unmarked),0.03
7,COc1ccc(NC(=O)COC(=O)/C=C/c2cc(OC)c(OC)c(S(=O)(=O)N3CCc4ccccc43)c2)cc1S(=O)(=O)N1CCCCC1,-0.01
8,Cc1ccc2[nH]c(SCC(=O)N3CCCC(C(N)=O)C3)nc2c1 (centres unmarked),-0.15
9,O=C1CCCN1C(=O)Cn1cnc2cc(Cl)ccc2c1=O,-0.04
10,Cc1n[nH]c(=O)c(C(=O)NNC(=O)CC23CC4CC(CC(C4)C2)C3)c1C,0.19
11,Cc1nc(N2CCN(c3cccc(C(F)(F)F)c3)CC2)c2c3c(sc2n1)CCC3,-0.03
12,O=C1/C(=C/c2ccc(OC(F)F)cc2OC(F)F)Oc2cc(O)ccc21,0.37
13,Cc1nc(N2CCC(c3nnc(N(C)C)[nH]3)CC2)c2c3c(sc2n1)CCCC3,-0.23
14,Cc1ccc(C(=O)Nc2nc3ccc(NS(=O)(=O)c4ccc5c(c4)CCC(=O)N5)cc3s2)s1,0.46
15,CC1CC(N(C)CCCOc2cccc(S(C)(=O)=O)c2)C(=O)O1 (centres unmarked),-0.14
16,CCCn1c2c(c(=O)[nH]c1=O)C(=O)C(C)N2 (centres unmarked),-0.11
17,FC(F)(F)c1nnc2ccc(NC3CC3)nn12,-0.05
18,O=C(CCCn1c(=O)oc2ccccc21)Nc1ccc(N2CCN(Cc3ccccc3)CC2)cc1,0.15
19,CN(c1ccc(OCCCC(C)(C)C#N)cc1)S(=O)(=O)c1ccc(Cl)cc1,0.11
20,Brc1ccc2[nH]c3c(c2c1)CCCCCC3,0.06
21,Cc1nc(C#N)c(C#N)n1Cc1cnn(-c2ccccc2)c1,-0.05
22,CC(OC(=O)C1=CN2CCS(=O)(=O)N=C2C=C1)C(=O)Nc1ccc(Oc2ccccc2)cc1 (centres unmarked),-0.11
23,O=[N+]([O-])c1cnn(-c2ncnc3ccsc23)c1,-0.03
